Assay results: article PMC9698719
Results are given in words; binding and its absence hold for the method and conditions named. In cells and extracts the contact can be indirect. Some entries that bind do so weakly or less than the wild type. For some assays here: Sequences can lack the tags named with a protein.

What was measured:
[1] = target: cyclin-dependent kinase 5 (Cdk5), endogenous in mouse brain lysate (mouse (endogenous in brain)) (UniProt P49615); assay: co-IP; mouse brain lysate; Cdk5 IPs blotted with cPLA2 antibody and cPLA2 IPs blotted with Cdk5 antibody; A/G Sepharose beads, wash buffer 50 mM Tris pH 8.5, 1 mM EGTA, 75 mM KCl
[2] = target: cyclin-dependent kinase 5 (Cdk5), overexpressed in HEK293T cells (UniProt Q00535); assay: co-IP; lysate of HEK293T cells overexpressing Cdk5 and cPLA2; Cdk5 IPs blotted with cPLA2 antibody and cPLA2 IPs blotted with Cdk5 antibody; A/G Sepharose beads, wash buffer 50 mM Tris pH 8.5, 1 mM EGTA, 75 mM KCl

| binding [1] | binding [2] | Binder |
| --- | --- | --- |
| binds |  | cytosolic phospholipase A2 (cPLA2), endogenous in mouse brain lysate (enzyme, UniProt P47713 1-748) MSFIDPYQHIIVEHQYSHKFTVVVLRATKVTKGTFGDMLDTPDPYVELFISTTPDSRKRTRHFNNDINPVWNETFEFILDPNQENVLEITLMDANYVMDETLGTATFPVSSMKVGEKKEVPFIFNQVTEMILEMSLEVCSCPDLRFSMALCDQEKTFRQQRKENIKENMKKLLGPKKSEGLYSTRDVPVVAILGSGGGFRAMVGFSGVMKALYESGILDCATYIAGLSGSTWYMSTLYSHPDFPEKGPEEINEELMKNVSHNPLLLLTPQKVKRYVESLWKKKSSGQPVTFTDIFGMLIGETLIQNRMSMTLSSLKEKVNAARCPLPLFTCLHVKPDVSELMFADWVEFSPYEIGMAKYGTFMAPDLFGSKFFMGTVVKKYEENPLHFLMGVWGSAFSILFNRVLGVSGSQNKGSTMEEELENITAKHIVSNDSSDSDDEAQGPKGTENEEAEKEYQSDNQASWVHRMLMALVSDSALFNTREGRAGKVHNFMLGLNLNTSYPLSPLRDFSSQDSFDDELDAAVADPDEFERIYEPLDVKSKKIHVVDSGLTFNLPYPLILRPQRGVDLIISFDFSARPSDTSPPFKELLLAEKWAKMNKLPFPKIDPYVFDREGLKECYVFKPKNPDVEKDCPTIIHFVLANINFRKYKAPGVLRETKEEKEIADFDIFDDPESPFSTFNFQYPNQAFKRLHDLMYFNTLNNIDVIKDAIVESIEYRRQNPSRCSVSLSNVEARKFFNKEFLSKPTV |
|  | binds | human cytosolic phospholipase A2 (cPLA2) wild type, 6xHis-tagged, overexpressed in HEK293T cells (enzyme, UniProt P47712 1-749) MSFIDPYQHIIVEHQYSHKFTVVVLRATKVTKGAFGDMLDTPDPYVELFISTTPDSRKRTRHFNNDINPVWNETFEFILDPNQENVLEITLMDANYVMDETLGTATFTVSSMKVGEKKEVPFIFNQVTEMVLEMSLEVCSCPDLRFSMALCDQEKTFRQQRKEHIRESMKKLLGPKNSEGLHSARDVPVVAILGSGGGFRAMVGFSGVMKALYESGILDCATYVAGLSGSTWYMSTLYSHPDFPEKGPEEINEELMKNVSHNPLLLLTPQKVKRYVESLWKKKSSGQPVTFTDIFGMLIGETLIHNRMNTTLSSLKEKVNTAQCPLPLFTCLHVKPDVSELMFADWVEFSPYEIGMAKYGTFMAPDLFGSKFFMGTVVKKYEENPLHFLMGVWGSAFSILFNRVLGVSGSQSRGSTMEEELENITTKHIVSNDSSDSDDESHEPKGTENEDAGSDYQSDNQASWIHRMIMALVSDSALFNTREGRAGKVHNFMLGLNLNTSYPLSPLSDFATQDSFDDDELDAAVADPDEFERIYEPLDVKSKKIHVVDSGLTFNLPYPLILRPQRGVDLIISFDFSARPSDSSPPFKELLLAEKWAKMNKLPFPKIDPYVFDREGLKECYVFKPKNPDMEKDCPTIIHFVLANINFRKYRAPGVPRETEEEKEIADFDIFDDPESPFSTFNFQYPNQAFKRLHDLMHFNTLNNIDVIKEAMVESIEYRRQNPSRCSVSLSNVEARRFFNKEFLSKPKA |
